Changes are numbered by the printed parent chain. Results are given in words; binding and its absence hold for the method and conditions named. Some results given as binding are weak or reduced against the parent protein; the word gives no strength.
B1: C33B1516VL1-1 (scFv)
scFv: QSVLTQPPSASGTPGQRVTISCSGSSSNIGSNIVNWYQQFPGTAPKLLLYSDNQRPSGVPDRFSGSKSGTSASLAISGLQSEDEADYYCAAWDDSLVGPVFGTGTKVTVLGGSEGKSSGSGSESKSTGGSQVQLQESGPGLVKPSETLSLTCSVSGGSIRNYYWSWIRQSAGKELEWFGHIFSTGHINYDSSLKSRVTMSVDTSNNQFSLKLRSVTAADTAVYYCARDNGAALFDFWGQGTLVTVSS
B2: C33B1516VL1-41 (scFv)
scFv: B1 scFv with V97D
B3: C33B1516VH2-8 (scFv)
scFv: B1 scFv with V97N, G230S
B4: C33B1516VL1-30 (scFv)
scFv: B1 scFv with V97E
B5: C33B1516VH1-8 (scFv)
scFv: B1 scFv with V97N, N229G
B6: C33B1516VL1-90 (scFv)
scFv: B1 scFv with V97H
B7: C33B1516VH1-4 (scFv)
scFv: B1 scFv with V97N, N229E
B8: C33B1516VL1-63 (scFv)
scFv: B1 scFv with V97I
B9: C33B1516VL2-11 (scFv)
scFv: B1 scFv with V97N, G98W
B10: C33B1516VH1-17 (scFv)
scFv: B1 scFv with V97N, N229F
B11: C33B1516VH1-27 (scFv)
scFv: B1 scFv with V97N, N229L
B12: C33B1516VH1-10 (scFv)
scFv: B1 scFv with V97N, N229K
B13: C33B1516VL1-20 (scFv)
scFv: B1 scFv with V97A
B14: C33B1516VH2-9 (scFv)
scFv: B1 scFv with V97N, G230A
B15: C33B1516VL2-38 (scFv)
scFv: B1 scFv with V97N, G98K
B16: C33B1516VL1-39 (scFv)
scFv: B1 scFv with V97F
B17: C33B1516VH1-13 (scFv)
scFv: B1 scFv with V97N, N229T
B18: C33B1516VH1-56 (scFv)
scFv: B1 scFv with V97N, N229I
B19: C33B1516VL1-2 (scFv)
scFv: B1 scFv with V97R
B20: C33B1516VH1-3 (scFv)
scFv: B1 scFv with V97N, N229S
B21: C33B1516VL2-3 (scFv)
scFv: B1 scFv with V97N, G98V
B22: C33B1516VL2-8 (scFv)
scFv: B1 scFv with V97N, G98D
B23: C33B1516VL2-4 (scFv)
scFv: B1 scFv with V97N, G98P
B24: C33B1516VL1-22 (scFv)
scFv: B1 scFv with V97L
B25: C33B1516VL1-14 (scFv)
scFv: B1 scFv with V97Q
B26: C33B1516VL2-29 (scFv)
scFv: B1 scFv with V97N, G98Y
B27: C33B1516VL2-35 (scFv)
scFv: B1 scFv with V97N, G98A
B28: C33B1516VL1-11 (scFv)
scFv: B1 scFv with V97G
B29: C33B1516VH1-7 (scFv)
scFv: B1 scFv with V97N, N229A
B30: C33B1516VL2-10 (scFv)
scFv: B1 scFv with V97N, G98E
B31: C33B1516VH1-21 (scFv)
scFv: B1 scFv with V97N, N229R
B32: C33B1516VL1-23 (scFv)
scFv: B1 scFv with V97Y
B33: C33B1516VL1-16 (scFv)
scFv: B1 scFv with V97S
B34: 3B1516VL1-10 (scFv)
scFv: B1 scFv with V97T
B35: C33B1516VL1-4 (scFv)
scFv: B1 scFv with V97P
B36: scFv based on C33B1516 (parental clone of the NNK library) (scFv)
scFv: B1 scFv with V97N
B37: C33B1516VL2-7 (scFv)
scFv: B1 scFv with V97N, G98R
B38: C33B1516VL2-37 (scFv)
scFv: B1 scFv with V97N, G98N
B39: C33B1516VL2-90 (scFv)
scFv: B1 scFv with V97N, G98L
B40: C33B1475VH1-36 (scFv)
scFv: DIVMTQSPLSLPVTPGEPASISCRSSQSLLHSDGYNYLDWYLQKSGQSPQLLIYLGSYRASGVPDRFSGSGSGTDFTLKISRVEAEDVGIYYCMQVLQTPWTFGQGTKVEIKGGSEGKSSGSGSESKSTGGSEVQLVESGGGLVQPGGSLRLSCVVSGFTFSSYWMTWVRQAPGKGLEWVANIKQVGSERYYVDSVKGRFTISRDSAKNSLYLQMNSLRAEDTAVYYCAREVGYNWNQGGYFDYWGQGTLVTVSS
B41: C33B1475VH2-16 (scFv)
scFv: B40 scFv with V186D, G187P
B42: C33B1475VH2-22 (scFv)
scFv: B40 scFv with V186D, G187A
B43: C33B1475VH2-35 (scFv)
scFv: B40 scFv with V186D, G187Q
B44: C33B1475VH1-89 (scFv)
scFv: B40 scFv with V186W
B45: C33B1475VH1-3 (scFv)
scFv: B40 scFv with V186A
B46: C33B1475VH2-58 (scFv)
scFv: B40 scFv with V186D, G187T
B47: C33B1475VH1-2 (scFv)
scFv: B40 scFv with V186G
B48: C33B1475VH1-5 (scFv)
scFv: B40 scFv with V186Y
B49: C33B1475VH2-20 (scFv)
scFv: B40 scFv with V186D, G187R
B50: C33B1475VH2-12 (scFv)
scFv: B40 scFv with V186D, G187V
B51: C33B1475VH2-86 (scFv)
scFv: B40 scFv with V186D, G187H
B52: C33B1475VH2-24 (scFv)
scFv: B40 scFv with V186D, G187L
B53: C33B1475VH1-63 (scFv)
scFv: B40 scFv with V186F
B54: C33B1475VH1-46 (scFv)
scFv: B40 scFv with V186T
B55: scFv based on C33B1475 (parental clone of the NNK library) (scFv)
scFv: B40 scFv with V186D

The chains behind the UniProt entries cited, without tags or fusion partners. Residues count along the entry.
UniProt P20138, residues 18-259: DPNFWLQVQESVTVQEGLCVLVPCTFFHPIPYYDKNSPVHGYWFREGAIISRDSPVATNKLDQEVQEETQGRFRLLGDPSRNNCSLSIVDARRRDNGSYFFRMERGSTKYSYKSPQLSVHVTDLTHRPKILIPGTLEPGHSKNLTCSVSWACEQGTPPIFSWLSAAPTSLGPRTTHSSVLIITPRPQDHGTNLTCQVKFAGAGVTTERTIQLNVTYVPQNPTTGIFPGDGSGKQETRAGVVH

Biological target: CD33 plated on 96 well plates (binding ELISA of Example 20) (UniProt P20138)
Experiment: ELISA on plated CD33, E. coli supernatant heated at 55/60/65 °C, luminescence as percent of RT

| binding | Binder |
| --- | --- |
| binds | B1 |
| binds | B2 |
| binds | B3 |
| binds | B4 |
| binds | B5 |
| binds | B6 |
| binds | B7 |
| binds | B8 |
| binds | B9 |
| binds | B10 |
| binds | B11 |
| binds | B12 |
| binds | B13 |
| binds | B14 |
| binds | B15 |
| binds | B16 |
| binds | B17 |
| binds | B18 |
| binds | B19 |
| binds | B20 |
| binds | B21 |
| binds | B22 |
| binds | B23 |
| binds | B24 |
| binds | B25 |
| binds | B26 |
| binds | B27 |
| binds | B28 |

| binding | Binder |
| --- | --- |
| binds | B29 |
| binds | B30 |
| binds | B31 |
| binds | B32 |
| binds | B33 |
| binds | B34 |
| binds | B35 |
| binds | B36 |
| binds | B37 |
| binds | B38 |
| binds | B39 |
| binds | B40 |
| binds | B41 |
| binds | B42 |
| binds | B43 |
| binds | B44 |
| binds | B45 |
| binds | B46 |
| binds | B47 |
| binds | B48 |
| binds | B49 |
| binds | B50 |
| binds | B51 |
| binds | B52 |
| binds | B53 |
| binds | B54 |
| binds | B55 |
